Data taken from ChEMBL document CHEMBL3988442, “University of Dundee, Small-Polar-MMV Screening Library” (2021).

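Viability assay of Plasmodium falciparum sporozoites; the read-out is not stated. The concentration is filed as 10 mM, unlikely as a test dose, so the dose is not known. Direction is inferred from retests: higher values go with lower viability. Strong results were mostly tested again. Of about 34,000 compounds tested this way, about 280 (0.84%) reached 50% or more in at least one test.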

Values are the deposited “Percent Effect”, in %.
The controls that fix the scale are not given in the record; negative values are as filed.
Compounds were drawn at random from those tested, without regard to their results.
Two or more numbers in one place are separate tests of the same structure; such repeats can differ widely.

Compound | effect
CCN1CC2(CCOCC2)c2cc(NS(=O)(=O)CC)ccc21.O=C(O)C(F)(F)F | 11.65
Cc1cc(C)n(C2CCCN(C(=O)c3c(C)c(C)n[nH]c3=O)C2)n1 (stereo not drawn) | -15.44
CCC(=O)N1CCOC(c2cc(Nc3nncs3)cc(C)n2)C1 (stereo not drawn) | -7.122
CCN1CCN(Cc2nc(CC(C)C)no2)CC1 | -3.069
O=C(O)C(F)(F)F.O=C(O)C(F)(F)F.O=C(O)C(F)(F)F.[H][C@@]12CN(Cc3ccccn3)C[C@]1([H])OCCN2c1ncccn1 | -19.95
CN(Cc1cccc(OC(F)(F)F)c1)C(=O)Cc1ccon1 | -20.31
O=C(O)C(F)(F)F.O=C(O)C(F)(F)F.O=C(O)C(F)(F)F.c1ccc(CN2CCC3(CC2)CCN(Cc2cccs2)C3)nc1 | -4.807
Cc1nc(C2CCCN(C(=O)C(C)(C)n3cc(Cl)cn3)C2)no1 (stereo not drawn) | -24.11
CN(C)c1cc(C2CCN(C(=O)c3cnn(C)c3)CC2)ccn1 | 9.743
[H][C@@]12COC[C@]1(COCC(=O)N(C)C)CN(Cc1cc(C)on1)C2 | 7.105
O=C(O)C(F)(F)F.O=C1CC[C@]2(CC[C@@H](NCc3ccc4c(c3)OCO4)CC2)N1 | 18.48
Cl.O=C(N1CCCC1)C1(Cc2ccc(-c3cccs3)cc2)CCNC1 (stereo not drawn) | 14.04
CC(C)n1c(C2CCCN(CC(N)=O)C2)nc2ccccc21 (stereo not drawn) | -2.722
Cc1ccccc1C(=O)NCc1ccc(N2CCNC(=O)C2)c(F)c1 | -8.824
Cc1cccc(CN2CCc3c(nc(N4CCC(C)CC4)[nH]c3=O)C2)n1 | -21.21
CCN(C)CC(=O)N1CCC(c2cc(N3CCOCC3)nc(C)n2)CC1 | 8.269
O=C(O)[C@@H]1CN(C(=O)CCCc2ccc(F)cc2)C[C@H]1C1CC1 | 2.308
Cc1ccc(CN2CCCn3nnc(COCCN(C)C)c3C2)s1.O=C(O)C(F)(F)F.O=C(O)C(F)(F)F | -3.212
CCn1ncc2c1CCCC2NCc1cscn1 (stereo not drawn) | -18.21 & -26.49
CCc1noc(C2CCN(C(=O)CCn3nc(C)cc3C)CC2)n1 | -16.14
Cc1csc(CNC(=O)N2CCCC(c3nncn3C)C2)n1 (stereo not drawn) | 2.625
O=C1NCC(C(=O)Nc2ncc(Cc3ccc(F)cc3)s2)N1 (stereo not drawn) | 9.951
CN(C)Cc1cc(=O)n2c(n1)CN(C(=O)c1ccc[nH]1)CCC2.O=C(O)C(F)(F)F | 8.101
Cc1nnc(CN(C)C2CCN(CCc3ccccn3)CC2)o1 | 12.71
CN1CCCC1c1ccc(C(=O)N2CCc3ccccc3C2)s1 (stereo not drawn) | 96.19 & 93.66 & 95.32
CN1CCN(C(=O)CC2CCN(CCc3ccccn3)CC2)CC1 | 3.006
c1ccc(-n2ncc(CNC3CCc4ncnn4C3)n2)cc1 (stereo not drawn) | 11.27
CCn1cnnc1CNC(=O)N1CCC(O)CC1 | 4.307
Cc1cccc(-c2[nH]ncc2CNCC2CCN(CC(C)O)CC2)c1 (stereo not drawn) | 30.72 & 3.72 & 0.468
Cc1cc(-c2cnn(CCNC(=O)CCn3cccn3)c2C2CC2)on1 | 16.79
Oc1nc(C2CCN(Cc3ccccn3)CC2)cc2ccccc12 | 8.824
Cc1nc(C)n(CC2CCCN(Cc3ccc(C(N)=O)cc3)C2)n1 (stereo not drawn) | 1.618
CC(C)N1C(=O)C2(CCN(C)CC2)c2cc(F)ccc21.Cl | -13.37
Cc1ccc(Oc2cc(CN)ccn2)cc1C.Cl | -11.28
Cc1ncsc1C(=O)N1CCCC(n2cncn2)C1 (stereo not drawn) | 2.561
N#Cc1ccc(Nc2nc3c(s2)C(=O)CN(CC2CC2)C3)cc1 | 14.65
CCOCCCn1c(NC(=O)c2cnc(C)s2)nc2ccccc21 | 11.97
Cc1nc(CN2CCN(CCCc3nc4ccccc4o3)CC2)no1 | 4.211
CC1CCc2nn(CCNC(=O)Cc3ccc(F)cc3)c(=O)cc2C1 (stereo not drawn) | -2 & -3.168 & 1.679
O=C(O)c1ccc(F)c(S(=O)(=O)Nc2ccc(-n3cccn3)c(Cl)c2)c1 | -5.15
[H][C@@]12CCN(S(=O)(=O)C3CC3)C[C@@]1([H])O[C@H](c1ccnc(C)n1)C2 | -0.4386
C[C@H](NC(=O)C1CC1)c1nc2cc(-c3ccc(F)cc3)ncn2n1 | -9.332
Cc1nc(NCCc2ccc(Cl)cc2)cc(C(=O)N2CCCCC2)n1 | -5.671
COCC1Cn2nnc(-c3cnn(C)c3)c2CN1Cc1ccco1.O=C(O)C(F)(F)F (stereo not drawn) | 3.382
Cc1nc(C)n(CC2CCCCN2CCS(C)(=O)=O)n1 (stereo not drawn) | 22.47
CCN1CCOCC12CCN(c1nccs1)CC2.O=C(O)C(F)(F)F | 5.537
COc1ccc(CN2CCC3(CC2)CC(c2cccnc2)CO3)cc1.O=C(O)C(F)(F)F.O=C(O)C(F)(F)F (stereo not drawn) | -6.579
CCn1ncnc1C(C)NC(=O)C1CCN(C(=O)COC)CC1 (stereo not drawn) | 0.2307
O=C1CCCN1CC1CCCCN1C(=O)Nc1cccc(F)c1 (stereo not drawn) | -4.338
O=C(Nc1cccc(CNCc2ccccn2)c1)C1CCCC1 | -40.84
COC(=O)C1CN(Cc2nc(C(C)(C)C)cs2)C[C@@H](C)O1 (stereo partly drawn) | -3.259
CCCNC(=O)NCc1cccnc1OC | -1.471
Cc1nc(N)sc1C(=O)N1Cc2ccccc2OC2(CCOCC2)C1 | 6.898
Cc1ccnc(NC(=O)c2ccc(C)o2)c1 | -40.27 & -55.88
CC(C)C(C(=O)N1CCCN(Cc2cnn(C)c2)CC1)n1cncn1 (stereo not drawn) | -9.378

Once more, the final 5:

Compound,effect
COC(=O)C1CN(Cc2nc(C(C)(C)C)cs2)C[C@@H](C)O1 (stereo partly drawn),-3.259
CCCNC(=O)NCc1cccnc1OC,-1.471
Cc1nc(N)sc1C(=O)N1Cc2ccccc2OC2(CCOCC2)C1,6.898
Cc1ccnc(NC(=O)c2ccc(C)o2)c1,-40.27 & -55.88
CC(C)C(C(=O)N1CCCN(Cc2cnn(C)c2)CC1)n1cncn1 (stereo not drawn),-9.378